Experimental data from patent US9481734B2 (Janssen Biotech, Inc., priority 2007, dated 2016).

Experiments:
human IgG1 = test: Proteinase digestion of purified IgG1, Agilent biosizing; format: biochemical; conditions: human IgG1 heavy chain, EU numbering; 1% (w/w) enzyme, pH 7.5, 37° C.
Description: A purified monoclonal antibody comprising a human IgG heavy chain was contacted with the proteases described and sampling was conducted over various durations of contact. Fragmentation in the samples was evaluated using the Agilent microfluidics “lab-on-a-chip” technology for in vitro biosizing (Goetz H et al. Biochemical and Biophysical Methods 60; 281-293, 2004).
Proteinase digestions of purified IgGs were carried out at pH 7.5 in phosphate-buffered saline (PBS) or, for the metalloproteinases, in Tris-buffered saline buffer at 37° C. Calcium chloride was included in the metalloproteinase reactions at 1 mM for MMP-12 and 10 mM for MMP-3; otherwise no additives were used. Antibody concentrations were typically 1 or 2 mg/mL and reactions were initiated by addition of enzyme to a 1% (w/w) ratio to IgG. Aliquots (10-20 μL) were removed at indicated times and the reactions were stopped either by adjustment to 20 mM EDTA (metalloproteinase incubations) or to 1 mM iodoacetamide (cysteine proteinases) or by rapid freezing.
The major proteolytic cleavage positions in the IgG1 hinge were identified for enzyme-generated fragments by N-terminal sequencing of the purified Fc fragment (MMP-3 and MMP-12) and/or high resolution mass spectrometric analyses of the purified Fab (neutrophil elastase, plasmin) and F(ab′)2 (cathepsin G, glutamyl endopeptidase and IdeS) fragments. Fragmentation was evaluated using the Agilent microfluidics “lab-on-a-chip” technology.

[1] = general procedure: Fmoc solid-phase peptide synthesis; Fmoc-Glu(OtBu)-Wang Resin; FastMoc chemistry; conditions: whole synthesis, scale 0.25 mmol

Substance | Cleaved Site (human IgG1) | crude mass [1] | isolated mass [1]
Neutrophil elastase: human neutrophil serine endopeptidase | Thr^223- |  | 
CTSPPSPSPAPE |  | Approximately 190 mg | 38 mg
Cathepsin G: human serine endopeptidase | Glu^233- |  | 
Stromelysin (MMP-3): human metalloendopeptidase | Pro^232- |  | 
Matrilysin (MMP-7): human metalloendopeptidase | Leu^234- |  | 

For part of these data: Plain letter strings leave the end groups untold.
